Experiments:
[1] = molecular target: T1, α3D-BCMA Adapter (SEQ ID NO: 1083); assay: flow cytometry: CAR transduced Jurkat cells incubated with 0.5 µg His-tagged Adapter, stained with anti-HIS PE (FIG. 2A)
T1 construct: Soluble fusion of the targetless α3D domain, linkers, the BCMA extracellular domain and a His tag
T1 chain: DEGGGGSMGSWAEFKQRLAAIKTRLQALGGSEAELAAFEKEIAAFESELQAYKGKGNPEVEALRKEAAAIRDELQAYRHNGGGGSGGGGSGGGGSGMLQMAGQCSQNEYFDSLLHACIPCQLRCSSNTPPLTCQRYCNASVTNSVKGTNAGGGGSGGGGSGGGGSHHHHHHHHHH
Description: (§1) FIGS. 2A-2B: Adapter binding associates with the Adapter and CAR binding specificity. Jurkat NFAT-Luciferase reporter cells were transduced with a negative control CAR (α3D), an AFP (p26)-binding CAR (af03), or a BCMA-binding CAR (bc40). In FIG. 2A, CAR transduced Jurkat cells were incubated with 0.5 μg of Adapter protein (4° C. for 20 minutes), washed, and then stained with anti-HIS PE (clone J095G46, 4° C. for 20 minutes).

[2] = molecular target: T2, cg06-BCMA Adapter (SEQ ID NO: 1082); assay: as above
T2 construct: also called CD123-specific Adapter with a BCMA antigenic determinant
T2 chain: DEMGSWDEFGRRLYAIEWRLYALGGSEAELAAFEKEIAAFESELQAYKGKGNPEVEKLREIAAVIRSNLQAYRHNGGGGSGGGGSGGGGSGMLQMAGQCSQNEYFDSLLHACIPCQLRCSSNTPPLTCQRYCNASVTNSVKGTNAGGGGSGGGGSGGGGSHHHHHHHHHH
Description: as §1

B1: BCMA-binding CAR (bc40, SEQ ID NO: 1091) (other)
chain: DYKDDDDKGGGGSGGGGSMGSWSEFWVRLGAIRERLDALGGSEAELAAFEKEIAAFESELQAYKGKGNPEVEKLRYTAATIRRFLQAYRHNGGGGSGGGGSGTTTPAPRPPTPAPTIASQPLSLRPEACRPAAGGAVHTRGLDFACDIYIWAPLAGTCGVLLLSLVITLYCKRGRKKLLYIFKQPFMRPVQTTQEEDGCSCRFPEEEEGGCELRVKFSRSADAPAYKQGQNQLYNELNLGRREEYDVLDKRRGRDPEMGGKPRRKNPQEGLYNELQKDKMAEAYSEIGMKGERRRGKGHDGLYQGLSTATKDTYDALHMQALPPR
notes: Chimeric antigen receptor with a D domain, on Jurkat reporter cells or human T cells; also called BCMA-specific D domain CAR (bc40); CTsp-Flag-GSlinker-bc40-GSlinker-CD8H-TM-41BB-CD3ζ
binding result [1]: binds
binding result [2]: binds
